Measurements reported in PubChem BioAssay AID504804 (Drosophila RNAi Screening Center, 2011)
Assay: 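Fly genes whose loss lessens doxorubicin-driven cell death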 (primary screen). Cells: Drosophila Kc cells. Reagents: long dsRNA against Drosophila genes, 0.5 µg dsRNA per well. Duration: 96 h (48 h knock-down, then 48 h drug). Challenge: doxorubicin 5 µg/ml for 48 h, added 48 h after dsRNA. Read-out: 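Viability measured as cellular ATP by luminescence after 48 h knock-down then 48 h doxorubicin at 5 µg/ml; unnormalised plate counts for each replicate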. Scale: raw ATP luminescence: higher = more viable cells, protection from doxorubicin. Active means: 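Active when both duplicate wells lie at least 2 SD above the plate mean and protection is confirmed by rescreening and independent dsRNAs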.
In all, the deposit lists about 19,000 reagents; shown is an unselected part of those that have a named target and a result. In the full data, 47 (0.25%) are marked active. 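Signals are raw, not normalised; exact z-scores behind calls not deposited; actives needed confirmation, so some wells reaching 2 SD are inactive.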 Unmarked entries are inactive. The numbers tell different reagents against one gene apart. A plus sign joins genes that one reagent is predicted to hit. Reagent sequences are not shown.

no.	gene	reagent	raw ATP luminescence, replicate 1	raw ATP luminescence, replicate 2
1	Spt20 (GeneID 39522)	1	36930	37227
2	CG42586 + CG31775	1	1.68e5	1.09e5
3	Gbp3 (GeneID 42709)	1	67150	78300
4	CG6833 (GeneID 39559)	1	16973	21740
5	CG10280 (GeneID 40740)	1	72863	71750
6	Der-1 (GeneID 33369)	1	1.34e5	93113
7	CG14324 (GeneID 42119)	1	65690	57280
8	CG31326 (GeneID 41728)	1	1.11e5	70870
9	CG14011 (GeneID 33790)	1	31350	37113
10	Gem2 (GeneID 40087)	1	28297	22440
11	Cog8 (GeneID 34571)	1	97980	65900
12	CG4502 (GeneID 34002)	1	1.07e5	52963
13	CG4570 (GeneID 41306)	1	51267	45727
14	GluRIIB (GeneID 33789)	1	26213	29890
15	CG6403 (GeneID 43220)	1	62250	52210
16	MED21 (GeneID 3354977)	1	3.38e5	2.80e5
17	COX4L (GeneID 35491)	1	45340	50080
18	Ptp36E (GeneID 35091)	1	76200	82853
19	CG2750 (GeneID 32179)	1	4.31e5	3.86e5
20	CG17571 (GeneID 35409)	1	69017	66443
21	CG17571 (GeneID 35409)	2	59453	70020
22	nolo (GeneID 35424)	1	66010	61807
23	nolo (GeneID 35424)	2	42827	31877
24	nolo (GeneID 35424)	3	32750	36860
25	fs(1)N (GeneID 45973)	1	42580	55990
26	pst (GeneID 38818)	1	52270	42880
27	Spn28Da (GeneID 34082)	1	41360	71437
28	CG8483 (GeneID 41623)	1	38643	26230
29	mei-P22 (GeneID 38797)	1	68020	75537
30	MagR (GeneID 32513)	1	2.10e5	2.16e5
31	CG5674 (GeneID 35072)	1	21917	20803
32	Akt (GeneID 41957)	1	40877	48467
33	CG5191 (GeneID 42431)	1	58477	55957
34	CG5191 (GeneID 42431)	2	58520	64120

5 neighbouring entries already listed:
no.	gene	reagent	raw ATP luminescence, replicate 1	raw ATP luminescence, replicate 2
27	Spn28Da (GeneID 34082)	1	41360	71437
28	CG8483 (GeneID 41623)	1	38643	26230
29	mei-P22 (GeneID 38797)	1	68020	75537
30	MagR (GeneID 32513)	1	2.10e5	2.16e5
31	CG5674 (GeneID 35072)	1	21917	20803
